Measured values reported in the supplement of paper PMC12823440, “Inhibitors supercharge kinase turnover through native proteolytic circuits” (Nature, 2025).
Where a name gives a salt, the structure may show the parent alone. The list shows a part of the results. Hit calls seldom repeat between salt and free forms of one compound.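 In K562 cells expressing nanoluciferase-fused kinases, luminescence was recorded at 4 h intervals between 2 and 18 h, normalized as percent of control with DMSO at 100% and a positive control at 0%. A significant (2 sigma) signal drop marks a time point as decreased. The authors' rule for a hit is not shown and takes in more than the number of time points.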

Sequences of proteins named here, by UniProt entry; tags and fusion partners are left off. A change or cut given only in a name is not applied to a line headed by its entry.
UniProt Q9UM73: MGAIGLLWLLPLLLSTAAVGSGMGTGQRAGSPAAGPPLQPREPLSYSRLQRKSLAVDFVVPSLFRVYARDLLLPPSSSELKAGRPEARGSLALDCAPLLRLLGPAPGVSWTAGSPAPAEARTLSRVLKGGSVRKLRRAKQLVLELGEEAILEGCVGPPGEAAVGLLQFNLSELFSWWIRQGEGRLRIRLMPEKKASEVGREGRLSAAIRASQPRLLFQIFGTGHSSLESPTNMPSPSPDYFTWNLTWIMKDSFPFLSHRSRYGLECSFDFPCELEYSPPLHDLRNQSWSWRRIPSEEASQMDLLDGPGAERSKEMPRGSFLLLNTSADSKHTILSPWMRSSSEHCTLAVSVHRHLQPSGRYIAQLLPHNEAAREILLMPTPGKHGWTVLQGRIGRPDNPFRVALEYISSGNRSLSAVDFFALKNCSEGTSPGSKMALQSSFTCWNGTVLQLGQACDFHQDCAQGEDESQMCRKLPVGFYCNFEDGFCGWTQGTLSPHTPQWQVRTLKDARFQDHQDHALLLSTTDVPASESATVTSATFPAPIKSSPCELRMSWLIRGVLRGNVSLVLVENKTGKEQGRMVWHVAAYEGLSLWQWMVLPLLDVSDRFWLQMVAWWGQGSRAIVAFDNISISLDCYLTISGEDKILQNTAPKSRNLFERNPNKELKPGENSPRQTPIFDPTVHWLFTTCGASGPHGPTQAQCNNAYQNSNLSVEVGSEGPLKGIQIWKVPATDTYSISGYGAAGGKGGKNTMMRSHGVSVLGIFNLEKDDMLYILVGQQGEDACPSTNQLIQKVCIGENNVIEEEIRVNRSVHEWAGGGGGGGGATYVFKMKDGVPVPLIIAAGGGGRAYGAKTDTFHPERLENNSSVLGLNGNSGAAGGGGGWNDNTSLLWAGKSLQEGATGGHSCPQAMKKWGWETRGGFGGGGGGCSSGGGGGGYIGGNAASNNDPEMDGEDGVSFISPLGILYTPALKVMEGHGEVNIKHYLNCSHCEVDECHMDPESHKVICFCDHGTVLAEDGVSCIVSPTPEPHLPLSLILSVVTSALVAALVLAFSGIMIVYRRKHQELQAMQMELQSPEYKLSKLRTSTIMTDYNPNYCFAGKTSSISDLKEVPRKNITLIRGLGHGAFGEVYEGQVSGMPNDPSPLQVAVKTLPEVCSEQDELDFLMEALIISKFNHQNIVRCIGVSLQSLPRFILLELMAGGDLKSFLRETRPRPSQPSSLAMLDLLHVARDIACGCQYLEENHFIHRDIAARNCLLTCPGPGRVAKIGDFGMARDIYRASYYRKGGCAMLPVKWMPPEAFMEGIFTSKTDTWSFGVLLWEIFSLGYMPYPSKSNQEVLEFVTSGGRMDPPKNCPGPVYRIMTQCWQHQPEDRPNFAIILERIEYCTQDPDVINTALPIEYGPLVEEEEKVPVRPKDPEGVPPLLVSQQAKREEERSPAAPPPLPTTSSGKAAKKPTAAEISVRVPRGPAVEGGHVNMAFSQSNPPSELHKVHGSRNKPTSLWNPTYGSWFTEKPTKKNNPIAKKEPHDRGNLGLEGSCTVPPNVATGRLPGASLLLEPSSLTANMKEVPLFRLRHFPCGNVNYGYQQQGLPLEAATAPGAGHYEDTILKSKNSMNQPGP
UniProt P10398: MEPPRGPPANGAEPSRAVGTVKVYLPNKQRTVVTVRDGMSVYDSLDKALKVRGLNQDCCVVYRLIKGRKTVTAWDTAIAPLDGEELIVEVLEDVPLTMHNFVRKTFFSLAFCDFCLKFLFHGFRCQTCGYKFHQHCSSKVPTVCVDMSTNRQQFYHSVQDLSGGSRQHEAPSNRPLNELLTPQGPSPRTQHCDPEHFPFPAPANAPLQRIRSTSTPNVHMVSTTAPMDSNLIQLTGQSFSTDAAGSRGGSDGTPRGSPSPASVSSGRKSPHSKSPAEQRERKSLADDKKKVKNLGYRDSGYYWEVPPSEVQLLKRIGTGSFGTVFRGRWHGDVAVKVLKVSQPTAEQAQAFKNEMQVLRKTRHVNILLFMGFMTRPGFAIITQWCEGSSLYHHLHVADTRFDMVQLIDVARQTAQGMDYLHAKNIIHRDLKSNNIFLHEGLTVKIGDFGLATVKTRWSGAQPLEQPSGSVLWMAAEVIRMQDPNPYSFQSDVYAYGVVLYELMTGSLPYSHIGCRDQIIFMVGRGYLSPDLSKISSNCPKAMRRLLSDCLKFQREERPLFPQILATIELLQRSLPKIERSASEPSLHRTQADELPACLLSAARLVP
UniProt O14965: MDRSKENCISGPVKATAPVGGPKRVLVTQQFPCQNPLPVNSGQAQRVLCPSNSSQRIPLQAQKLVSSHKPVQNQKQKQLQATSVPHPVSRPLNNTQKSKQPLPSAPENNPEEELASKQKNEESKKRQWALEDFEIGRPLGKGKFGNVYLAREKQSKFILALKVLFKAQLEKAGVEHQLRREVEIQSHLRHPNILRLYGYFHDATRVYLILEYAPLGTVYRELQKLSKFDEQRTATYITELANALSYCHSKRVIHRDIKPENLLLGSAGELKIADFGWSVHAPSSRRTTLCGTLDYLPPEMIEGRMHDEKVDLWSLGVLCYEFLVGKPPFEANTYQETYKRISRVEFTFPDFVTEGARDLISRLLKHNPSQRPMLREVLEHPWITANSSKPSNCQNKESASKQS
UniProt Q96GD4, whole entry: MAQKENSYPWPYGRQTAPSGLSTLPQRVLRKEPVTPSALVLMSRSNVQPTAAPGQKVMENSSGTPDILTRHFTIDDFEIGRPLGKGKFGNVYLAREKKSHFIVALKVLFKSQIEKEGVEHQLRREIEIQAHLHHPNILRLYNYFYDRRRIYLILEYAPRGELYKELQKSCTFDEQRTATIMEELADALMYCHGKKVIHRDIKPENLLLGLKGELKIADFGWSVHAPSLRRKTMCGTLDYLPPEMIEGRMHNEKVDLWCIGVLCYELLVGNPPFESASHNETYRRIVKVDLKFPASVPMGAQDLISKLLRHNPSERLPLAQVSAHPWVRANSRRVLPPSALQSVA
UniProt P51451: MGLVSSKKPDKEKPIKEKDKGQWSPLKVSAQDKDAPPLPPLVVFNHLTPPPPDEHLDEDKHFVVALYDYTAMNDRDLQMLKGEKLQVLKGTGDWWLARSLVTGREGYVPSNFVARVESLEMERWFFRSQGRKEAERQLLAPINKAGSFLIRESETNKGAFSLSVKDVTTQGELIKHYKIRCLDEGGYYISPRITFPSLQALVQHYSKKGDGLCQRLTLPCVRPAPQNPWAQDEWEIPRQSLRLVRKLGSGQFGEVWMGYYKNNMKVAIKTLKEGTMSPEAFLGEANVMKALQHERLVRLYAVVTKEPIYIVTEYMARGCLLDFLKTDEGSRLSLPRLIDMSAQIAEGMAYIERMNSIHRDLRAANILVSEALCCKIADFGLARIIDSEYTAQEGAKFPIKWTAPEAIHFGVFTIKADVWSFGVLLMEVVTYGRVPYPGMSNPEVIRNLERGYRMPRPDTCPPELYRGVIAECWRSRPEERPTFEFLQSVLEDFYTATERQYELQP
UniProt Q06187: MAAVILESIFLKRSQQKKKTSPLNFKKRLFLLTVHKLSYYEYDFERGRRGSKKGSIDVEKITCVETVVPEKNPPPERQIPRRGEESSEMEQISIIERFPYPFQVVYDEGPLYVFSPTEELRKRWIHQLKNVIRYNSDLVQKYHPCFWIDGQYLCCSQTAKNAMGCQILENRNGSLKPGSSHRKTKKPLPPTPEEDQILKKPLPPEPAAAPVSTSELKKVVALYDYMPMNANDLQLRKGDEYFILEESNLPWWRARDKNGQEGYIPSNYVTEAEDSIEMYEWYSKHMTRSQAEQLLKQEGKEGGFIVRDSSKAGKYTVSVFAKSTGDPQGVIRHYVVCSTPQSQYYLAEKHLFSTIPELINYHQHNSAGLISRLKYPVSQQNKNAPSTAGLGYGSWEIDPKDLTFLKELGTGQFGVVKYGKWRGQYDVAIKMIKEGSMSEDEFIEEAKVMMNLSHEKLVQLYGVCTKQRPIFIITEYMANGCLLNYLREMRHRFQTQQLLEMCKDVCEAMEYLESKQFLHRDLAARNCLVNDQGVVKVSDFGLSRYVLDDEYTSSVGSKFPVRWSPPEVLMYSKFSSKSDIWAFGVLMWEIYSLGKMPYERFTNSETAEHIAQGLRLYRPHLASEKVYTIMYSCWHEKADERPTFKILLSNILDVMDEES
UniProt Q9UQM7, whole entry: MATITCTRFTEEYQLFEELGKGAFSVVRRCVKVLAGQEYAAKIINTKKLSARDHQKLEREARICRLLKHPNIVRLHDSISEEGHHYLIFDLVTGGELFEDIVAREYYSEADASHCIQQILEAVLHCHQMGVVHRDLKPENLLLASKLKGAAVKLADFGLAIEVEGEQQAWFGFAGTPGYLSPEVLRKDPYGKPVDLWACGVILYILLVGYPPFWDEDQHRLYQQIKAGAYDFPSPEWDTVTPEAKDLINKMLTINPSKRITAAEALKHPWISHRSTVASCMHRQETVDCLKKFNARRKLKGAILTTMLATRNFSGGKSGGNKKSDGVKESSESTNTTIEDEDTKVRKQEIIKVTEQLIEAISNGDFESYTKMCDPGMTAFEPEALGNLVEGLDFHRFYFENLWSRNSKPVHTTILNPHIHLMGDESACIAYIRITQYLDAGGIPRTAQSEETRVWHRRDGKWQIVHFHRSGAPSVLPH
UniProt Q15131: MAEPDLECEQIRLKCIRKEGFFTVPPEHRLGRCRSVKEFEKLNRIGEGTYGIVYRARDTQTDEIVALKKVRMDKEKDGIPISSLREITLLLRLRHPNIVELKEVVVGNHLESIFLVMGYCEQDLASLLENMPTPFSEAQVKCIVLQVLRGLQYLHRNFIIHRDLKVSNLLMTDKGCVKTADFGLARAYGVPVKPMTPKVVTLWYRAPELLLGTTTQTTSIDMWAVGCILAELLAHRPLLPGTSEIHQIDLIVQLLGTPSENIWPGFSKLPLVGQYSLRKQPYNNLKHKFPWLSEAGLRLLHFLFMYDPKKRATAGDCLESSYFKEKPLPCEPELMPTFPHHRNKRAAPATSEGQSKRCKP
UniProt Q00535, whole entry, looked up: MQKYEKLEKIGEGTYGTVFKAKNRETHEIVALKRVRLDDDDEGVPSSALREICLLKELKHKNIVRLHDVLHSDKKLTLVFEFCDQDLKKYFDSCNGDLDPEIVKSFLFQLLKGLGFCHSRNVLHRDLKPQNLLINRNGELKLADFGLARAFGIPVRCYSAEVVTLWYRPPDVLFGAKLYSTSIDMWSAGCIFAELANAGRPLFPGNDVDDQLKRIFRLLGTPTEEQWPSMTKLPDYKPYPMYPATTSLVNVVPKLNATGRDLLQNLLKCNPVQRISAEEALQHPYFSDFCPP
UniProt Q00534, whole entry: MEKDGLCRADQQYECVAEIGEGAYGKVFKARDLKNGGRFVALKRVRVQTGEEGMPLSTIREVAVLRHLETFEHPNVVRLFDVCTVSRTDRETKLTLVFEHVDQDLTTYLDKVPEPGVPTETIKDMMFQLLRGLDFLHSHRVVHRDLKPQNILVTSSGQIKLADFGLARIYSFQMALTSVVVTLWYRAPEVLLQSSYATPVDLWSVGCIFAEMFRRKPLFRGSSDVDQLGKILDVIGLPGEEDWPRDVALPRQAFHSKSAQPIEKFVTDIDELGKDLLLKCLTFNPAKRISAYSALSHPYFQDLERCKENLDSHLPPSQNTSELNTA
UniProt O96017, whole entry: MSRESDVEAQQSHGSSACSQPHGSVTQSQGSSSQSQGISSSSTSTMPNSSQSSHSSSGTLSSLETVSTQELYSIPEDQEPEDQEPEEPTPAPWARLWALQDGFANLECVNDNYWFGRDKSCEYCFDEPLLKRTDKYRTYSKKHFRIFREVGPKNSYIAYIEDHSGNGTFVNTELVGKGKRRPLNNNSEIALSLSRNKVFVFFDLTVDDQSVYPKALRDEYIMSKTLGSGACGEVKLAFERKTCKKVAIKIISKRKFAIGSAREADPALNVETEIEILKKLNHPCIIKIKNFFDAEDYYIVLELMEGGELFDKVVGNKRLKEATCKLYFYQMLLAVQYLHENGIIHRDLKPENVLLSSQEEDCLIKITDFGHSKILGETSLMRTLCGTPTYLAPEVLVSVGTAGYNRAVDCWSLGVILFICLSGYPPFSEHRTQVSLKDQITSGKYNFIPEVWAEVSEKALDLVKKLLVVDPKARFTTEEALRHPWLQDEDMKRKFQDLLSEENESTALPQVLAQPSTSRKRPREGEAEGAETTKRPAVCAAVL
UniProt P41240: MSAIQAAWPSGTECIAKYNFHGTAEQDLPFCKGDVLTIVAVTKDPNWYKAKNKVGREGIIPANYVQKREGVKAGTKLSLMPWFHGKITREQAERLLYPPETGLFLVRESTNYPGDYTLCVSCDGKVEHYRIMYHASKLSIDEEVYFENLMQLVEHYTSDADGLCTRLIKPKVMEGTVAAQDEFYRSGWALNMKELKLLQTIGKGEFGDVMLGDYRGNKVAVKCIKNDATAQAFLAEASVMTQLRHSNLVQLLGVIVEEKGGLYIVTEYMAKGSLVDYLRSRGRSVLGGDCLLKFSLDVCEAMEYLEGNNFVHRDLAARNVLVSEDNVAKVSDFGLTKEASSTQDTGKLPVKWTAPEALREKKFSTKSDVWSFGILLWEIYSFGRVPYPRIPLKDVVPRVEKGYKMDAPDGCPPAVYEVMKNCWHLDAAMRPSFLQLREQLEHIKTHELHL

Key:
Test in all cases: number of time points (of 5) at which kinase-Nluc abundance scored as decreased, DMSO-normalised (count); higher = more persistent destabilization
Conditions in all cases: K562; 2-18 h
[1] = biological target: ALK (UniProt Q9UM73)
[2] = biological target: ARAF (UniProt P10398)
[3] = biological target: AURKA (UniProt O14965)
[4] = biological target: AURKB (UniProt Q96GD4)
[5] = biological target: AURKC (UniProt Q9UQB9)
[6] = biological target: BLK (UniProt P51451)
[7] = biological target: BMX (UniProt P51813)
[8] = biological target: BRAF (UniProt P15056)
[9] = test system: BRAF_V600E
[10] = biological target: BTK (UniProt Q06187)
[11] = biological target: CAMK2A (UniProt Q9UQM7)
[12] = biological target: CAMK2G (UniProt Q13555)
[13] = biological target: CDK10 (UniProt Q15131)
[14] = biological target: CDK2 (UniProt P24941)
[15] = biological target: CDK3 (UniProt Q00526)
[16] = biological target: CDK5 (UniProt Q00535)
[17] = biological target: CDK6 (UniProt Q00534)
[18] = biological target: CHEK2 (UniProt O96017)
[19] = biological target: CSF1R (UniProt P07333)
[20] = biological target: CSK (UniProt P41240)

Measured: number of time points

Cc1c(Br)c(Br)c2c3c1nc(N1CCNCC1)n3CCC2 [SEL120-34A (monohydrochloride)] (2.5 µM)
0: [1] | [2] | [3] | [4] | [5] | [6] | [7] | [8] | [9] | [10] | [11] | [12] | [13] | [14] | [15] | [16] | [17] | [18] | [19] | [20]

CCCC[C@H](CO)Nc1nc(NC)ncc1OC [Interferon receptor inducer-1] (10 µM)
0: [1] | [2] | [3] | [4] | [5] | [6] | [7] | [8] | [9] | [10] | [11] | [12] | [13] | [14] | [15] | [16] | [17] | [18] | [19] | [20]

CC1=C(C(=O)Nc2ccc3[nH]ncc3c2)C(c2ccc(F)c(C(=O)NCc3ccccn3)c2)NC(=O)N1 (stereo not given) (10 µM)
0: [1] | [2] | [3] | [4] | [5] | [6] | [7] | [8] | [9] | [10] | [11] | [12] | [13] | [14] | [15] | [16] | [17] | [18] | [19] | [20]

Cc1cc([N+](=O)[O-])c(NS(=O)(=O)c2cccc(C(=O)O)c2)cc1-c1cccnc1 [Alofanib] (10 µM)
0: [1] | [2] | [3] | [4] | [5] | [6] | [7] | [8] | [9] | [10] | [11] | [12] | [13] | [14] | [15] | [16] | [17] | [18] | [19] | [20]

COC(=O)/C=C/c1ccc(O)c(OC)c1 [Ferulic acid methyl ester] (10 µM)
0: [1] | [2] | [3] | [4] | [5] | [6] | [7] | [8] | [9] | [10] | [11] | [12] | [13] | [14] | [15] | [16] | [17] | [18] | [19] | [20]

CC[C@@H]1CN(C(=O)NCC(F)(F)F)C[C@@H]1c1cnc2cnc3[nH]ccc3n12 [Upadacitinib] (10 µM)
0: [1] | [2] | [3] | [4] | [5] | [6] | [7] | [8] | [9] | [10] | [11] | [12] | [13] | [14] | [15] | [16] | [17] | [18] | [19] | [20]

C=CC(=O)Nc1cccc(Oc2nc(Nc3ccc(N4CCN(C)CC4)cc3)nc3ccsc23)c1 [Olmutinib] (2.5 µM)
0: [1] | [2] | [3] | [4] | [5] | [6] | [7] | [8] | [9] | [10] | [11] | [12] | [13] | [14] | [15] | [16] | [17] | [18] | [19] | [20]

COc1cc(/C=C/c2ccc(NC(=O)/C=C/c3cc(OC)c(OC)c(OC)c3)cc2)cc(OC)c1 (2.5 µM)
0: [1] | [2] | [3] | [4] | [5] | [6] | [7] | [8] | [9] | [10] | [11] | [12] | [13] | [14] | [15] | [16] | [17] | [18] | [19] | [20]

CC(C)(O)c1cc(Nc2cc(Oc3cn(C4CC4)nc3C3CCOCC3)ccn2)ccn1 (10 µM)
0: [1] | [2] | [3] | [4] | [5] | [6] | [7] | [8] | [9] | [10] | [11] | [12] | [13] | [14] | [15] | [16] | [17] | [18] | [19] | [20]

C[C@@H](Nc1cc(F)cc(F)c1)c1cc(C(=O)N(C)C)cc2c(=O)cc(N3CCOCC3)oc12 (10 µM)
0: [1] | [2] | [3] | [4] | [5] | [6] | [7] | [8] | [9] | [10] | [11] | [12] | [13] | [14] | [15] | [16] | [17] | [18] | [19] | [20]

O=c1cc(N2CCOCC2)oc2c1ccc1ccccc12 (2 µM)
0: [1] | [2] | [3] | [4] | [5] | [6] | [7] | [8] | [9] | [10] | [11] | [12] | [13] | [14] | [15] | [16] | [17] | [18] | [19] | [20]

COc1ccc(COc2cc3oc(=O)c4cc(C(C)O)ccc4c3cc2OC)cc1 (stereo not given) [Palomid 529] (2.5 µM)
0: [1] | [2] | [3] | [4] | [5] | [6] | [7] | [8] | [9] | [10] | [11] | [12] | [13] | [14] | [15] | [16] | [17] | [18] | [19] | [20]

COc1cc(-c2cnc(N)c(-c3ccc(NC(=O)c4cn(CC5CCOCC5)cc(-c5ccc(C)cn5)c4=O)cc3F)c2)ccc1OC[C@H]1COCCO1 [DS-1205b (free base)] (10 µM)
0: [1] | [2] | [3] | [4] | [5] | [6] | [7] | [8] | [9] | [10] | [11] | [12] | [13] | [14] | [15] | [16] | [17] | [18] | [19] | [20]

O=C1c2cccc(O)c2C(=O)c2c(O)cccc21 [Danthron] (10 µM)
0: [1] | [2] | [3] | [4] | [5] | [6] | [7] | [8] | [9] | [10] | [11] | [12] | [13] | [14] | [15] | [16] | [17] | [18] | [19] | [20]

C=CC(=O)Nc1cccc(Oc2nc(Nc3ccc(N4CCN(C)CC4)cc3)ncc2Cl)c1 (2.5 µM)
0: [1] | [2] | [3] | [4] | [5] | [6] | [7] | [8] | [9] | [10] | [11] | [12] | [13] | [14] | [15] | [16] | [17] | [18] | [19] | [20]

C[C@H](Nc1ccc2c(c1)OCCn1cc(N3C(=O)OC[C@H]3C(F)F)nc1-2)C(N)=O (10 µM)
0: [1] | [2] | [3] | [4] | [5] | [6] | [7] | [8] | [9] | [10] | [11] | [12] | [13] | [14] | [15] | [16] | [17] | [18] | [19] | [20]

Cc1ncc(F)c(Nc2n[nH]c3c2CN(C(=O)N2C[C@@H](C)N(CC4CCOCC4)C[C@@H]2C)C3(C)C)n1 (10 µM)
0: [1] | [2] | [3] | [4] | [5] | [6] | [7] | [8] | [9] | [10] | [11] | [12] | [13] | [14] | [15] | [16] | [17] | [18] | [19] | [20]

O=C(O)[C@]1(Cc2cccc(Nc3nccs3)n2)CC[C@@H](Oc2cccc(Cl)c2F)CC1 (2.5 µM)
0: [2] | [3] | [4] | [5] | [6] | [8] | [10] | [11] | [13] | [14] | [15] | [16] | [17] | [20]
2: [7] | [9] | [12]
1: [1] | [18] | [19]

O=C(N/N=C/c1ccc([N+](=O)[O-])o1)c1ccc(O)cc1 [Nifuroxazide] (10 µM)
2: [13]
3: [12] | [18] | [19]
1: [1] | [3] | [7] | [8]
0: [2] | [4] | [5] | [6] | [9] | [10] | [11] | [14] | [15] | [16] | [17] | [20]

Fetched by structure from the list above (two):
C[C@H](Nc1ccc2c(c1)OCCn1cc(N3C(=O)OC[C@H]3C(F)F)nc1-2)C(N)=O (10 µM)
0: [1] | [2] | [3] | [4] | [5] | [6] | [7] | [8] | [9] | [10] | [11] | [12] | [13] | [14] | [15] | [16] | [17] | [18] | [19] | [20]

O=C(O)[C@]1(Cc2cccc(Nc3nccs3)n2)CC[C@@H](Oc2cccc(Cl)c2F)CC1 (2.5 µM)
0: [2] | [3] | [4] | [5] | [6] | [8] | [10] | [11] | [13] | [14] | [15] | [16] | [17] | [20]
2: [7] | [9] | [12]
1: [1] | [18] | [19]

More records follow:

COc1cccc2cc(-c3nc([C@H]4CC[C@H](C(=O)O)CC4)n4ncnc(N)c34)[nH]c12 (2.5 µM)
2: [1] | [8]
3: [6] | [7] | [19]
0: [2] | [4] | [5] | [10] | [11] | [12] | [13] | [14] | [15] | [16] | [17] | [18] | [20]
4: [3] | [9]

CC(C)n1cnnc1-c1cccc(NC(=O)c2cc3ccc(F)cc3[nH]2)n1 (2.5 µM)
4: [9]
3: [1] | [3] | [6] | [7] | [12] | [18]
2: [4]
0: [2] | [5] | [8] | [10] | [11] | [13] | [14] | [15] | [16] | [17] | [19] | [20]

Cc1ccc(Nc2c(C(N)=O)cnc3cc(-c4ccncc4)ccc23)cc1C [cFMS Receptor Inhibitor II] (10 µM)
0: [1] | [2] | [3] | [4] | [5] | [6] | [7] | [8] | [9] | [10] | [11] | [12] | [13] | [14] | [15] | [16] | [17] | [18] | [19] | [20]

Cc1cccc(Cn2nc(C)c3c(NC(=O)c4csc5c(N)ncnc45)cccc32)n1 (10 µM)
0: [1] | [2] | [3] | [4] | [5] | [6] | [7] | [8] | [9] | [10] | [11] | [12] | [13] | [14] | [15] | [16] | [17] | [18] | [19] | [20]

CC(C)(C)NS(=O)(=O)c1cncc(-c2cc(F)c3nc(N)nn3c2)c1 (10 µM)
0: [1] | [2] | [3] | [4] | [5] | [6] | [7] | [8] | [9] | [10] | [11] | [12] | [13] | [14] | [15] | [16] | [17] | [18] | [19] | [20]
